Test results published in patent US20170129926A1 (ABCLON, published 2017).
Read-outs that look alike come from different tables or passages of the source. Values belong to the binder of their own block, whether it stands above or below them.

The chains behind the UniProt entries cited, without tags or fusion partners. Residues count along the entry.
UniProt P05231, 30-212 limits assumed: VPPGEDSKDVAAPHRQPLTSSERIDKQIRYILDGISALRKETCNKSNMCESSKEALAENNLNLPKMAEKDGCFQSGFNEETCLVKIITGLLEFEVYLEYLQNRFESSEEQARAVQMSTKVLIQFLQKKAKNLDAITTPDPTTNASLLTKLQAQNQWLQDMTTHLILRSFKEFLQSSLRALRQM

Assays:
[1] = target: T1, murine IL-6 (murine, UniProt P08505 25-211); assay: ELISA, captured Z-ABD, biotin-mIL-6 titrated
T1 construct: biotinylated; also called mIL-6
T1 sequence: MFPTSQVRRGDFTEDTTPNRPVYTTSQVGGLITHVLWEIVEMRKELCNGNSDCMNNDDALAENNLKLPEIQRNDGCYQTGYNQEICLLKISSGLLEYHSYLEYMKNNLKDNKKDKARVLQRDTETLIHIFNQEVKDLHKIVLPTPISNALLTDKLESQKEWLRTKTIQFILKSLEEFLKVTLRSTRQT

[2] = target: T2, human IL-6 (human, UniProt P05231 30-212); assay: competition ELISA: blocking of pre-mixed hIL-6/hIL-6Rα binding to coated hgp130-Fc
T2 construct: recombinant, bought (Peprotech 200-06; R&D Systems 206-IL/CF); biotinylated in the ELISAs; also called hIL-6; rhIL-6
Method: In this experiment, half area 96-well ELISA plates were coated with Fc-fused hgp130 (hgp130-Fc) at a concentration of 4 μg/ml. Plates were incubated overnight at 4° C. and then washed twice in tap water. Next, the plates were blocked for 1 h in PBSC. Plates were incubated for 1.5 h at RT and then washed 4 times with 200 μl 0.05% Tween/PBS.
Plates were incubated for 1.5 h and then washed 4 times. A biotinylated anti-IL-6Rα antibody (R&D Systems) was added and the plates were incubated for another 1.5 h followed by washing. A 1:8000 dilution of streptavidin-HRP (Thermo Scientific) was added and the plates were incubated for 1 h.

[3] = target: T2, human IL-6; assay: cell-based or functional assay
[4] = target: T2, human IL-6; assay: competition ELISA: blocking of preformed hIL-6/hIL-6Rα binding to hgp130
[5] = target: T2, human IL-6; assay: cell-based or functional assay; remark: listed apart in the source
[6] = target: T2, human IL-6; assay: SPR (ProteOn), Z variant immobilized, hIL-6 analyte, 1:1 model
Method: The immobilization was performed using amine coupling chemistry according to the manufacturer's recommendations and PBST 0.05% was used as running buffer. PBST 0.05% was also used as running buffer in the kinetic experiment using a flow rate was 60 μl/min. […] After dissociation, the surfaces were regenerated with HCl supplemented with 0.05% Tween 20. Kinetic constants were calculated from the sensorgrams using a 1:1 model in Bio-Rad manager Software (Bio-Rad).

[7] = target: T2, human IL-6; assay: SPR (ProteOn), polypeptide immobilized, rhIL-6 analyte, mean of three
Method: This experiment was repeated three times.
In separate triplicate experiments, TNF (R&D Systems) was injected using the same concentration series. In all cases, the duration of the injection was 3 min at a flow rate of 60 μl/min and the dissociation time was 30 min. Buffer response levels obtained for activated/deactivated spots or in between spots areas were subtracted according to the manufacturer's instructions. The data was analyzed using Bio-Rad Manager Software (BioRad).

[8] = target: T2, human IL-6; assay: cell-based or functional assay; remark: listed apart in the source

B1: Z11612 (designed binder)
chain: AQHDEALEVDAKYAKEEQVAWWEISHLPNLTITQVVAFIQKLFDDPSQSSELLSEAKKLNDSQAPKVDYVLAEAKVLANRELDKYGVSDYYKNLINNAKTVEGVKALIDEILAALPYVPG
notes: domain: GA3; periplasmic ABD fusion
EC50 [1]: 9.3 nM

B5: His6-Z06829 (designed binder)
chain: MGSSHHHHHHLQVDAKYAKEEQRAWTEIHVLPNLTVSQMSAFISKLFDDPSQSSELLSEAKKLNDSQAPKVD
IC50 [2]: 11 nM
IC50, IL-6 dependent growth of TF-1 cells [3]: 28 nM

B6: His6-Z06799 (designed binder)
chain: MGSSHHHHHHLQVDAKYAKEEQRAWTEIHVLPNLTVQQMAAFITKLFDDPSQSSELLSEAKKLNDSQAPKVD
IC50 [2]: 3.7 nM
IC50, IL-6 dependent growth of TF-1 cells [3]: 3.9 nM

B8: His6-Z14984 (designed binder)
chain: MGSSHHHHHHLQVDAKYAKEEKQAWREIHLLPNLTIDQMAAFITKLFDDPSQSSELLSEAKKLNDSQAPKVD
IC50 [4]: < 1.6 nM
IC50, IL-6 dependent growth of TF-1 cells [5]: 0.27 nM
Kd [6]: 0.25 nM
koff [6]: 7.4e-05 s⁻¹
kon [6]: 300000 M⁻¹ s⁻¹

B9: His6-Z06779 (designed binder)
chain: MGSSHHHHHHLQVDAKYAKEERSAWFEIHTLPNLTVQQIAAFIWKLYDDPSQSSELLSEAKKLNDSQAPKVD
IC50 [2]: 36 nM
IC50, IL-6 dependent growth of TF-1 cells [3]: 30 nM

B14: His6-Z06809 (designed binder)
chain: MGSSHHHHHHLQVDAKYAKEERDAWREIHALPNLTVDQLVAFITKLFDDPSQSSELLSEAKKLNDSQAPKVD
IC50 [2]: 3.3 nM
IC50, IL-6 dependent growth of TF-1 cells [3]: 20 nM

B16: His6-Z06844 (designed binder)
chain: MGSSHHHHHHLQVDAKYAKEEHAAWLEIHLLPNLTVKQMAAFIGKLMDDPSQSSELLSEAKKLNDSQAPKVD
IC50 [2]: 87 nM
IC50, IL-6 dependent growth of TF-1 cells [3]: 110 nM

B18: His6-Z06789 (designed binder)
chain: MGSSHHHHHHLQVDAKYAKEERQAWWEIHSLPNLTVDQMAAFIVKLMDDPSQSSELLSEAKKLNDSQAPKVD
IC50 [2]: 6.2 nM
IC50, IL-6 dependent growth of TF-1 cells [3]: 8.6 nM

B19: His6-Z14861 (designed binder)
chain: MGSSHHHHHHLQVDAKYAKEERKAWIEIHNLPNLTIDQMAAFITKLFDDPSQSSELLSEAKKLNDSQAPKVD
IC50 [4]: < 1.6 nM
IC50, IL-6 dependent growth of TF-1 cells [5]: 0.19 nM
Kd [6]: 0.17 nM
koff [6]: 6.3e-05 s⁻¹
kon [6]: 360000 M⁻¹ s⁻¹

B20: His6-Z06791 (designed binder)
chain: MGSSHHHHHHLQVDAKYAKEQAKAWWEIHVLPNLTVHQVAAFITKLFDDPSQSSELLSEAKKLNDSQAPKVD
IC50 [2]: 23 nM
IC50, IL-6 dependent growth of TF-1 cells [3]: 5.2 nM

B21: Z06814-ABD (designed binder)
chain: MGSSLQVDAKYAKEEQRAWREIHLLPNLTIEQMAAFIWKLLDDPSQSSELLSEAKKLNDSQAPKVDGSLAEAKEAANAELDSYGVSDFYKRLIDKAKTVEGVEALKDAILAALP
IC50, IL-6 dependent growth of TF-1 cells [3]: 0.8 nM
IC50, IL-6 trans-signaling (MCP-1 secretion by HUVECs) [8]: ~1 nM

Second part, the binder after the results:

EC50 [1]: 7.7 nM
B2: Z11616 (designed binder)
chain: AQHDEALEVDAKYAKEEQVAWWEISHLPNLTIEQVVAFIQKLFDDPSQSSELLSEAKKLNDSQAPKVDYVLAEAKVLANRELDKYGVSDYYKNLINNAKTVEGVKALIDEILAALPYVPG
notes: as for B1

IC50 [2]: 46 nM
IC50, IL-6 dependent growth of TF-1 cells [3]: 72 nM
B3: His6-Z06777 (designed binder)
chain: MGSSHHHHHHLQVDAKYAKEERKAWFEIHLLPNLTTQQRSAFISKLFDDPSQSSELLSEAKKLNDSQAPKVD

IC50 [4]: < 1.6 nM
IC50, IL-6 dependent growth of TF-1 cells [5]: 0.042 nM
Kd [6]: 0.088 nM
koff [6]: 2.7e-05 s⁻¹
kon [6]: 310000 M⁻¹ s⁻¹
B4: His6-Z14976 (designed binder)
chain: MGSSHHHHHHLQVDAKYAKEERKAWYEIHLLPNLTVEQMAAFITKLFDDPSQSSELLSEAKKLNDSQAPKVD
notes: also called Z014976

IC50 [2]: 27 nM
IC50, IL-6 dependent growth of TF-1 cells [3]: 43 nM
B7: His6-Z06802 (designed binder)
chain: MGSSHHHHHHLQVDAKYAKETQHAWWEIHKLPNLTVSQMAAFITKLFDDPSQSSELLSEAKKLNDSQAPKVD

IC50 [2]: 42 nM
IC50, IL-6 dependent growth of TF-1 cells [3]: 77 nM
B10: His6-Z06805 (designed binder)
chain: MGSSHHHHHHLQVDAKYAKEDRTAWWEIHKLPNLTAEQMAAFITKLFDDPSQSSELLSEAKKLNDSQAPKVD

IC50 [2]: 17 nM
IC50, IL-6 dependent growth of TF-1 cells [3]: 53 nM
B11: His6-Z06792 (designed binder)
chain: MGSSHHHHHHLQVDAKYAKEERDAWHEIQILPNLTITQMAAFISKLFDDPSQSSELLSEAKKLNDSQAPKVD

IC50 [4]: < 1.6 nM
IC50, IL-6 dependent growth of TF-1 cells [5]: 0.085 nM
Kd [6]: 0.12 nM
koff [6]: 3.9e-05 s⁻¹
kon [6]: 310000 M⁻¹ s⁻¹
B12: His6-Z15122 (designed binder)
chain: MGSSHHHHHHLQVDAKYAKEERHAWYEIHLLPNLTIDQMAAFISKLFDDPSQSSELLSEAKKLNDSQAPKVD

IC50 [2]: 53 nM
IC50, IL-6 dependent growth of TF-1 cells [3]: 61 nM
B13: His6-Z06834 (designed binder)
chain: MGSSHHHHHHLQVDAKYAKEQHQAWNEIHLLPNLTVNQMAAFIVKLFDDPSQSSELLSEAKKLNDSQAPKVD

IC50 [4]: < 1.6 nM
IC50, IL-6 dependent growth of TF-1 cells [5]: 0.027 nM
Kd [6]: 0.17 nM
koff [6]: 7.2e-05 s⁻¹
kon [6]: 430000 M⁻¹ s⁻¹
B15: His6-Z15015 (designed binder)
chain: MGSSHHHHHHLQVDAKYAKEERDAWWEIHALPNLTVEQMAAFITKLFDDPSQSSELLSEAKKLNDSQAPKVD

IC50, IL-6 dependent growth of TF-1 cells [5]: 0.13 nM
Kd [6]: 0.2 nM
koff [6]: 8.8e-05 s⁻¹
kon [6]: 430000 M⁻¹ s⁻¹
IC50 [2]: 1.6 nM
IC50, IL-6 dependent growth of TF-1 cells [3]: 1.6 nM
Kd [7]: 0.5 nM
koff [7]: 0.00015 s⁻¹
kon [7]: 310000 M⁻¹ s⁻¹
B17: His6-Z06814 (designed binder)
chain: MGSSHHHHHHLQVDAKYAKEEQRAWREIHLLPNLTIEQMAAFIWKLLDDPSQSSELLSEAKKLNDSQAPKVD
